The results in this text go back to publication PMC9114391.

The chains behind the UniProt entries cited, without tags or fusion partners.
UniProt Q07335: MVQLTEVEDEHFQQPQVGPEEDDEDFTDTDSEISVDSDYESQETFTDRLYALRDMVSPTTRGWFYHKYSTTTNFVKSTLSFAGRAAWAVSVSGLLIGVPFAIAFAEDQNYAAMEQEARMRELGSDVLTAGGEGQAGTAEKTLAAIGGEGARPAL
UniProt Q7SG90: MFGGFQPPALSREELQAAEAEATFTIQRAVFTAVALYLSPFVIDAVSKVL
UniProt P24391: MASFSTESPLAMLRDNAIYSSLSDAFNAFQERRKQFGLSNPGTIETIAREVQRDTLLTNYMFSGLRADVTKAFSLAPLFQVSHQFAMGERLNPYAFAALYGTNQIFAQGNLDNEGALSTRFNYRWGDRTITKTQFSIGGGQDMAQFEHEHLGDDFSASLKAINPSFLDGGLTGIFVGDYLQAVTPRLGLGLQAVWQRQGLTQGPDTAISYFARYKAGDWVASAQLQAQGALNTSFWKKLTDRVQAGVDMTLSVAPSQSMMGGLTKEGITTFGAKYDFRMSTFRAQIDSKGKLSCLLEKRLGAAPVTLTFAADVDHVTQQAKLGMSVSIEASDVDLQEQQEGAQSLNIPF

No constants are given. Whether binding was seen depends on the method and setting. Some entries that bind do so weakly or less than the wild type.

The assay has as its target Tom22 with a hexahistidine tag at the C-terminus (Neurospora crassa) (UniProt Q07335). Description: co-purification (Ni-NTA affinity and anion exchange chromatography, SDS-PAGE with Coomassie staining); mitochondria solubilised in 1% n-dodecyl-β-D-maltoside, 20% glycerol, 300 mM NaCl, 20 mM imidazole, 20 mM Tris-HCl pH 8.5; His-tagged Tom22 held on Ni-NTA, eluted with 300 mM imidazole; then Resource Q, 0-500 mM KCl.

In the case of Tom5 (from UniProt Q7SG90 1-50), the binding entry is on record as “binds”.

Tom40 (from UniProt P24391 1-349): the binding entry is listed as “binds”.
